Laboratory results as given in article PMC6115833.
These are yes or no findings as the source states them, for the method shown. Binding seen in cells or lysates may run through a third protein. Some results given as binding are weak or reduced against the parent protein; the word gives no strength.

Protein sequences, listed by entry. Tags and fused reporters are not part of them.
UniProt Q8C6B2: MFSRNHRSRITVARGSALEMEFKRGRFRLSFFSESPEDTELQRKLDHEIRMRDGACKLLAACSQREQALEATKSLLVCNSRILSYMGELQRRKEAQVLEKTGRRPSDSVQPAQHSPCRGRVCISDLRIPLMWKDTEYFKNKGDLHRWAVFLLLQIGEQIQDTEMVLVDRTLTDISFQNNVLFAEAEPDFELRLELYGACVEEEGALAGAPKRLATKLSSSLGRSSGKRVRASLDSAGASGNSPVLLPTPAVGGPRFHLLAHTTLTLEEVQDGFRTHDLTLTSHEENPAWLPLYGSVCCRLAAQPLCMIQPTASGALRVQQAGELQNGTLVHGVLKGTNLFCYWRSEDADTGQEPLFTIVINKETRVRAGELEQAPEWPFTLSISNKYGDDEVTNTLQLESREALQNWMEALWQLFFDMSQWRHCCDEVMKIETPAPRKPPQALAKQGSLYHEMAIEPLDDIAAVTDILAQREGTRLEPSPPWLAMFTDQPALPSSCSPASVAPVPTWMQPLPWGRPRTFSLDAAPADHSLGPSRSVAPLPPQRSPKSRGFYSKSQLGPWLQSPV
UniProt Q62159: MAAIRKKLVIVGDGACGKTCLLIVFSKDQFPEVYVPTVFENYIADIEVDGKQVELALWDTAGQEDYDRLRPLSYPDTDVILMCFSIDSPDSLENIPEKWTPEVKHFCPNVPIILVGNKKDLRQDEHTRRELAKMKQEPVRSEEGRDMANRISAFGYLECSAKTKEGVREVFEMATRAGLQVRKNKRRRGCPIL

What was measured:
[1] = molecular target: rhotekin (UniProt Q8C6B2); test: pull-down; rhotekin beads incubated with lysate of MLO-Y4 cells (serum starved overnight, PMT 1 nM for 4 h); GST-fish buffer (10% glycerol, 50 mM Tris-HCl pH 7.4, 100 mM NaCl, 2 mM MgCl2, 1% NP-40), 1 h at 4 °C; bound RhoC detected by immunoblot; only the target purified
[2] = molecular target: rhotekin (UniProt Q8C6B2); test: condition: only cells untreated (con) or treated with inactive PMT C1165S (1 nM) instead of PMT; pull-down; as a1, but lysate of MLO-Y4 cells left untreated (con) or treated with the inactive mutant PMT C1165S (1 nM, 4 h); only the target purified

RhoC (from UniProt Q62159 1-193)
binding [1]: binds
binding [2]: no binding
